Measurements published in article PMC12221297.
Construct, isoform or probe ends are uncertain for at least one entry. For some assays here: A weaker result is weaker than the reference pair of the same experiment. At least one verdict was read from the data and is not stated in words by the source. For some assays here: Results from cells or extracts need not show a direct contact. For some assays here: Negatives hold for the conditions tested. For some assays here: Tags and fusion partners may be left off the protein sequences shown.

By UniProt entry, the sequences of proteins in these tests, tags left out. Where a name states a change or a piece, a line headed by the entry shows the natural chain unless it says otherwise.
UniProt Q61990, whole entry: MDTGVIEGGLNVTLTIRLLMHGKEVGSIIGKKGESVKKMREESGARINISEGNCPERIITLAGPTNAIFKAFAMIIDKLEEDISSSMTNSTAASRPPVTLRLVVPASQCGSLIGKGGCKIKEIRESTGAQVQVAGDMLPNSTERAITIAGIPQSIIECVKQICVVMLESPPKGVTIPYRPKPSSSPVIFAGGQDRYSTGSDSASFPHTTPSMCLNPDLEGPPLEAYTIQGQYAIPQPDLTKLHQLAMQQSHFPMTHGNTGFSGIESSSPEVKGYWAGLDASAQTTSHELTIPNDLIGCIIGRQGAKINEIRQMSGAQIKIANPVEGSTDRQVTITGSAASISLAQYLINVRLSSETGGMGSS
UniProt P16858: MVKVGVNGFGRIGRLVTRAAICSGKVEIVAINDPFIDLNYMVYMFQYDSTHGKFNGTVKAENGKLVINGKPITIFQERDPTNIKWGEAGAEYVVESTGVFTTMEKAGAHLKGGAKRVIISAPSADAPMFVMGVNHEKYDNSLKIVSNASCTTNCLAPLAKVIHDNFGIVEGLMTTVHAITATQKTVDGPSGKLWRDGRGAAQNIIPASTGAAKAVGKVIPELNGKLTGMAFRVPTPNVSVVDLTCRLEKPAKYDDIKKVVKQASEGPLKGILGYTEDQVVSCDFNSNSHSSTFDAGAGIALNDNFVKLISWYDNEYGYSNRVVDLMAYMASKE

Columns and labels:
[1] = molecular target: T1, SYNCRIP (hnRNPQ) endogenous (Mus musculus (hepatocytes)) (UniProt Q7TMK9); test: pull-down + immunoblot; conditions: pull-down: streptavidin beads blocked with 1 mg/mL yeast tRNA, 90 min 4 C, lysis buffer washes; 4 ug recombinant PCBP2; protein in an extract; label: 5' biotin
T1 sequence (looked up, limits assumed): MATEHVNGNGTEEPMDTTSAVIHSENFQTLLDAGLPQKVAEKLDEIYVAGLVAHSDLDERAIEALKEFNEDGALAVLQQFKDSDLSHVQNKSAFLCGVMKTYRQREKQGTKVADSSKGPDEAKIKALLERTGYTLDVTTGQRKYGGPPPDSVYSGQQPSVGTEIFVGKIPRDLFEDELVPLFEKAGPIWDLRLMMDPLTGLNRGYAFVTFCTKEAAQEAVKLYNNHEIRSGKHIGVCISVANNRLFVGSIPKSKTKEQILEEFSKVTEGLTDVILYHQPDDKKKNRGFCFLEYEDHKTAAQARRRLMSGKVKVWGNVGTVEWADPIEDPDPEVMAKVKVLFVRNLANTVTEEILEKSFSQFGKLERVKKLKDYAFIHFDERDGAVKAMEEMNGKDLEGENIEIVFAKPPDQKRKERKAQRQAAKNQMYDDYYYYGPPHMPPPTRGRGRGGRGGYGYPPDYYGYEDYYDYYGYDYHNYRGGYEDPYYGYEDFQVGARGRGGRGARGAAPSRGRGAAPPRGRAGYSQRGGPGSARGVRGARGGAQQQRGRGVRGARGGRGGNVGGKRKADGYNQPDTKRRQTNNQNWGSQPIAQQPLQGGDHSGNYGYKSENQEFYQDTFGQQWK

[2] = molecular target: PCBP2 endogenous (Mus musculus (hepatocytes)) (UniProt Q61990); test: pull-down + immunoblot; conditions: pull-down: streptavidin beads blocked with 1 mg/mL yeast tRNA, 90 min 4 C, lysis buffer washes; 4 ug recombinant PCBP2; protein in an extract; label: 5' biotin
[3] = molecular target: PCBP2 recombinant (Origene TP522190) (Mus musculus) (UniProt Q61990); test: pull-down; conditions: pull-down: streptavidin beads blocked with 1 mg/mL yeast tRNA, 90 min 4 C, lysis buffer washes; 4 ug recombinant PCBP2; commercial protein; label: 5' biotin
[4] = molecular target: GAPDH endogenous (Mus musculus (hepatocytes)) (UniProt P16858); test: pull-down + immunoblot; conditions: negative control; pull-down: streptavidin beads blocked with 1 mg/mL yeast tRNA, 90 min 4 C, lysis buffer washes; 4 ug recombinant PCBP2; protein in an extract; label: 5' biotin
[5] = molecular target: T1, SYNCRIP (hnRNPQ) endogenous (Mus musculus (hepatocytes)); test: EMSA supershift; conditions: EMSA: REMSA binding buffer (LightShift kit), 4 ug extract, 0.5 pmol biotin-RNA, 30 min room temperature, native 6% PAGE 0.5x TBE, protein in an extract, label: 5' biotin
[6] = molecular target: PCBP2 endogenous (Mus musculus (hepatocytes)) (UniProt Q61990); test: EMSA supershift; conditions: EMSA: REMSA binding buffer (LightShift kit), 4 ug extract, 0.5 pmol biotin-RNA, 30 min room temperature, native 6% PAGE 0.5x TBE, protein in an extract, label: 5' biotin

Sequence	binding result [1]	binding result [2]	also measured
AGGGACUUUCAGGGGCAGCUGUG [miR-365-2-5p WT]	binds	no binding	–
AGGGACUUUCAUUGGCAGCUGUG [miR-365-2-5p +CELL (printed as +hEXO in Table 1)]	binds	binds	–
CCUGUUCUCCAUUACUUGGCGA [miR-26b-3p no-hEXO]	–	binds more weakly	–
CCUGUUCUCCAUUACUUGGCUC [miR-26b-3p WT]	binds	binds	–
CUCCUACCUGUUAGCAUGAUC [miR-155-3p no-CELL]	binds	binds more weakly	binding result [3]: binds more weakly
CUCCUACCUGUUAGCAUUAAC [miR-155-3p WT (Table 1: miR-155b-3p WT)]	binds	binds	binding result [4]: no binding; binding result ([5]; anti-SYNCRIP): binds; binding result ([5]; shPCBP2 extract): binds; binding result ([6]; anti-PCBP2): binds; binding result ([6]; shSYNCRIP extract): binds more weakly
CUCCUACCUGUUAGCAUUAGU [miR-155-3p no-hEXO]	binds more weakly	binds more weakly	–
UGCUAUGCCAACAUAUUGCCAUC [miR-31-3p WT]	–	no binding	–
UGCUAUGCCAACAUAUUGGGCUG [miR-31-3p+hEXO]	binds	binds	–
UGCUAUGCCAACAUAUUUGGCUG [miR-31-3p+hEXO no-CELL]	–	binds more weakly	–
